In PubChem BioAssay AID1259415 (National Center for Advancing Translational Sciences (NCATS), 2018):
About 18,000 (4.4%) of roughly 410,000 compounds were called active. Inconclusive means that the source gave no clear call. Such entries were picked first, then a sample of the others. Cut-off read from the data, not from the text of the source: active = activity change below about -60%; inconclusive = no clear call, values can overlap the other calls; inactive = above about -39%.

assay: qHTS Assay for inhibitors of the human cytomegalovirus (HCMV); conditions: HFF cells, HCMV-luciferase reporter, 72 h; at 57.5 µM; hits give low values
Outline: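 Two-dose cell screen: HFF monolayers treated with compounds and infected with luciferase-expressing HCMV at 1 PFU/cell, 72 h at 37C, then lysed for luciferase measurement.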
% is set by controls: 0 for no effect and ±100 for the full control effect.

Row | SMILES | activity change, negative = inhibition
1 | Cn1nc(C(F)(F)F)cc1C(=O)Nc1ccc(-c2ccno2)cc1 | inconclusive: -47.3%
2 | COc1ccc(S(=O)(=O)N2c3cc(Cl)ccc3Oc3nc4ccccc4nc32)cc1 | active: -89.3%
3 | O=C(C[C@H]1CC[C@@H](NC(=O)C2CC2)[C@@H](CO)O1)NCc1ccccc1Cl | inactive: 14.9%
4 | COC(=O)N1CCc2c(sc(NC(=O)C3COc4ccccc4O3)c2C(N)=O)C1 (stereo not given) | inconclusive: -58.2%
5 | CCn1c(CN2CCN(Cc3ccc(C)cc3)C(CCO)C2)nc2ccccc21 (stereo not given) | inactive: 11.8%
6 | CCOC(=O)Cc1ccc(NC(=O)c2cccc([N+](=O)[O-])c2)cc1 | active: -60.3%
7 | NS(=O)(=O)c1ccc(CNS(=O)(=O)c2cc(Cl)ccc2Cl)cc1 | inconclusive: -43.2%
8 | C/C(CC1CC(C)(C)OC1=O)=N\NC(N)=S (stereo not given) | inconclusive: -48.4%
9 | COc1ccccc1NS(=O)(=O)c1cc(NC(=O)CNC(=O)c2ccc(C)s2)ccc1Cl | inconclusive: -49.7%
10 | CN=C1SC(CC(=O)Nc2c(C)cccc2C)C(=O)N1/N=C/c1cccs1 (stereo not given) | inconclusive: -50.1%
11 | C/C(=N\NC(=O)c1cccc(N/N=C(\C)c2cc(O)ccc2O)c1)c1cc(O)ccc1O | active: -78%
12 | NS(=O)(=O)c1ccc(CCNC(=O)/C=C/c2cccc([N+](=O)[O-])c2)cc1 | inconclusive: -46.3%
13 | COCCn1c(SCC(=O)NC(=O)NC2CCCCC2)nc2ccccc2c1=O | inactive: -0.391%
14 | Cc1ccc(NS(=O)(=O)c2cc(-c3n[nH]c(=O)c4ccccc34)ccc2C)cc1 | inconclusive: -43.3%
15 | COc1ccc(C(=O)N/C(=C\c2ccc([N+](=O)[O-])cc2)C(=O)NC(CCSC)C(=O)O)cc1 (stereo not given) | inconclusive: -50%
16 | CCCC(=O)Nc1nnc(SCc2cc(=O)c3ccc(C)cc3[nH]2)s1 | inconclusive: -48.4%
17 | CCOC(=O)C1(Cc2cccc(F)c2)CCN(C(=O)c2ccoc2C)CC1 | inactive: -2.66%
18 | Cc1c(Cl)cccc1Nc1nc(N)nc(CSc2nc3ccccc3s2)n1 | inconclusive: -56.3%
19 | O=C(NCc1ccccc1)C(c1ccc(C(F)(F)F)cc1)N1CCN(CCN2CCOCC2)CC1 (stereo not given) | inactive: 14%
20 | Cc1ccc(NC(=O)CCCn2c3ccccc3c(=O)c3cc(C)ccc32)c(Br)c1 | inconclusive: -51.1%
21 | O=C1CS(=O)(=O)C2(C(=O)N(Cc3ccc(F)cc3)c3ccccc32)N1c1cccc(C(F)(F)F)c1 (stereo not given) | active: -76.7%
22 | O=C(CCC(=O)OCC(=O)c1cccc([N+](=O)[O-])c1)Nc1cccc(Cl)c1Cl | inactive: 72.6%

Row | SMILES | activity change, negative = inhibition
23 | O=C1c2[nH]nc(-c3ccccc3)c2C(c2ccccc2)N1c1cccc(C(F)(F)F)c1 (stereo not given) | active: -108%
24 | O=C(COC(=O)c1ccc(F)cc1F)c1ccc[nH]1 | inconclusive: -44.2%
25 | COc1ccc(OC)c2[nH]c(=O)c(CCNC(=S)NC(C)(C)C)cc12 | inconclusive: -53.7%
26 | C[C@H]1C(=O)O[C@@H]2CCN3CC=C(COC(=O)[C@](C)(O)[C@]1(C)O)[C@H]23 | inconclusive: -44.2%
27 | Cc1ccc(-c2n[nH]c(=S)n2C)cc1 | inconclusive: -41.5%
28 | Cn1nc(C(C)(C)C)cc1C(=O)Sc1cccc(Br)c1 | inconclusive: -42%
29 | COC(=O)C1CCCCN1C(=O)c1cccc(OC2CCN(C(=O)C3CC3)CC2)c1 (stereo not given) | inconclusive: -59.6%
30 | CCCCc1c(-c2cccc(OC)c2)ncn1CCc1ccccc1OC | inconclusive: -59.9%
31 | O=C(COc1ccc(Cl)cc1Cl)N1CCNC1=O | inconclusive: 0%
32 | O=C(CCN1N=C(c2ccccc2)CCC1=O)NCC1CCCO1 (stereo not given) | inconclusive: -45.4%
33 | C/C=C/c1ccc(OCCOc2cc(C=O)ccc2OC)c(OC)c1 | inactive: 94.8%
34 | CC(C)(C)c1ccc(NC(=O)c2ccccc2)c([N+](=O)[O-])c1 | inactive: 23.9%
35 | C/C(=N/OC(=O)C1CC12CCC2)c1ccc(Br)cc1 (stereo not given) | inactive: 17.4%
36 | COCCn1c(C)cc(C2=NNC(=NC3CC3)SC2)c1C | active: -96.3%
37 | COc1cccc(CN2CCC2(C)C(=O)Nc2cnc3ccccc3c2)c1F (stereo not given) | inconclusive: -42.4%
38 | COC(=O)c1ccc(Cn2c(C)c(C(=O)NCc3cccc(C(F)(F)F)c3)sc2=O)o1 | inactive: 121%
39 | O=C(c1ccc(S(=O)(=O)NCC2CCCO2)cc1)N1CCc2ccccc21 (stereo not given) | inconclusive: -55.4%
40 | CCCc1nc(SCC(=O)NC2CCCC2)c2ccccc2n1 | inconclusive: -52.5%
41 | CSc1ncc(OCc2ccccc2)c(=O)[nH]1 | inconclusive: -53%
42 | C#CCN(C[C@@H]1[C@@H](OC(=O)NCc2ccco2)[C@@H](OC(=O)NCc2ccco2)Cn2c(=O)n(CCCCCC)c(=O)n21)S(=O)(=O)c1ccc(C)cc1 | active: -74.2%
43 | CCOc1ccc(CNC(=O)c2cc3c(=O)n(Cc4cccs4)ccc3nc2C)cc1 | inconclusive: -42.2%
44 | CC(C)CN(CCNC(=O)CN1C(=O)COc2ccc(S(=O)(=O)N3CCOCC3)cc21)CC(C)C | inconclusive: -41.7%

Row | SMILES | activity change, negative = inhibition
45 | CC(C)NC(=O)C1CCN(C2CCN(C(=O)c3cc4c(s3)CCCCC4)CC2)CC1 | inconclusive: -41%
46 | Cn1nccc1C(=O)N1CCCC(C(=O)c2ccc(Oc3ccccc3)cc2)C1 (stereo not given) | inconclusive: -54%
47 | COc1cc(C=O)ccc1OCCCOc1ccc([N+](=O)[O-])cc1 | inconclusive: -43.3%
48 | CCc1c(C)sc(NC(=O)c2cc(-c3ccc(OC)cc3)on2)c1C#N | inactive: 25.7%
49 | Cc1n[nH]c(=O)c2c(NC(=O)CSc3ccccc3Cl)oc(C)c12 | inconclusive: -44%
50 | O=C(CCCc1nc2ccccc2s1)NCc1cccnc1 | inactive: 26%
51 | Cc1ccccc1OCc1nc(-c2ccc(NC(=O)c3ccco3)cc2)no1 | inconclusive: -40.9%
52 | COc1cccc2sc3ccc(C#CC4(N)CCCCC4)cc3c(=O)c12 | inconclusive: -55.1%
53 | COC(=O)Nc1ccc(S(=O)(=O)N2CCCC(C(=O)Nc3cccnc3)C2)cc1 (stereo not given) | inconclusive: -51.8%
54 | COc1ccc(-n2c(SCC(=O)N3CCOCC3)nc3ccccc3c2=O)cc1 | inconclusive: -47.4%
55 | O=C(N/N=C\c1ccc(CNS(=O)(=O)c2ccc(Cl)cc2)o1)C(=O)Nc1ccc(Oc2ccccc2)cc1 | active: -99.4%
56 | CCOCCCn1c(=O)c2ccccc2n2c(=S)[nH]nc12 | inconclusive: -46.6%
57 | Cc1ccc(N2C(=O)c3ccc(C(=O)N4CCN(c5ccccc5F)CC4)cc3C2=O)cc1 | inactive: -1.51%
58 | COc1ccc(-c2noc(CSc3nnc(Cc4ccccc4)n3-c3cccc(C)c3)n2)cc1OC | inconclusive: -43.4%
59 | Cc1cc2cc(CN(Cc3cccs3)C(=S)NCC3CCCO3)c(=O)[nH]c2cc1C (stereo not given) | inconclusive: -40.6%
60 | Cc1nc2ccccn2c1C(=O)CSc1cccc(Cl)c1 | inconclusive: -59.7%
61 | O=C(/C=C/c1ccccc1[N+](=O)[O-])NC1CCCC1 | inactive: -0.0695%
62 | COc1cccc(NC(=O)C2=C(C)C(=O)OC23CCN(C(C)=O)CC3)c1 | inconclusive: 0%
63 | Cn1c(CCN2CCCCC2)nc2cc([N+](=O)[O-])ccc21 | inconclusive: -49.6%
64 | O=C(NCCNC(=O)c1ccccc1O)c1ccccc1O | inconclusive: -41.2%
65 | O=C(O)CSc1nnc(-c2ccncc2)n1Cc1ccccc1 | inactive: 78.7%
66 | O=C(Nc1ccc2c(c1)OCO2)c1cnccn1 | inactive: 12.9%

Row | SMILES | activity change, negative = inhibition
67 | COc1cc(CN2CCN(Cc3ccc(C(F)(F)F)cc3)CC2)cc(OC)c1OC | inconclusive: -47.2%
68 | CCOC(=O)C1(C)/C(=N/Nc2ccc(S(N)(=O)=O)cc2)C(=O)C(=O)N1c1ccccc1 (stereo not given) | inconclusive: -43.7%
69 | COc1cccc(OCCSc2nc(C)c(Cc3ccccc3)c(=O)[nH]2)c1 | inconclusive: -49%
70 | O=C(Nc1ccc(N2CCCCC2)c(Cl)c1)c1cccnc1 | active: -77.7%
71 | CC(C)n1nccc1N(Cc1ccc(Cl)cc1)S(=O)(=O)c1ccccc1 | inconclusive: -41.1%
72 | COCCCNC(=O)c1ccc(-n2nc(C(F)(F)F)cc2-c2cccs2)cc1 | inconclusive: -48.1%
73 | C=CCn1cc(C=C2C(=O)N(C)C(=O)N(C)C2=O)c2ccccc21 | inconclusive: -52.5%
74 | COc1ccc(-c2c3c(=O)n(C)c(=O)n(C)c3cn2C2CCCCC2)cc1 | inconclusive: -44%
75 | CCN(Cc1ccccc1)S(=O)(=O)c1cc(C(=O)NC2CCCCCC2)ccc1OC | inactive: -32.1%
76 | COC(=O)c1ccccc1NC(=O)c1ccc(-c2ccc(Br)cc2)o1 | inconclusive: -59.7%
77 | Oc1ccc(NCc2ccccc2OCc2ccccc2F)cc1 | inconclusive: -59.9%
78 | CSCc1nc2sc(C(=O)Nc3nc(C)cs3)c(C)c2c(=O)[nH]1 | inactive: 43.9%
79 | Cc1ccc(/C=C/C(=O)Nc2ccc([N+](=O)[O-])c(NC(=O)/C=C/c3ccc(C)o3)c2)o1 | active: -77%
80 | CCOC(=O)c1c(C)[nH]c(C)c1C(=O)COC(=O)c1ccc([N+](=O)[O-])s1 | inactive: 41.3%
81 | FC(F)(F)c1cccc(NC(=S)NCC2COc3ccccc3O2)c1 (stereo not given) | inconclusive: -46.7%
82 | COc1ccc(-c2csc3ncnc(N4CCN(Cc5ccccc5)CC4)c23)cc1 | active: -88.7%
83 | CC1(C)CC(=O)C2=C(C1)OC1=C(C2)C(=O)CC(C)(C)C1 | inconclusive: -44.4%
84 | CCN(Cc1ccccc1)S(=O)(=O)c1c(C)[nH]c(C)c1C(=O)N1CCCCC1 | inactive: 6.62%
85 | COc1cc(-c2nc3ccccn3c2NCC2CCCO2)ccc1O (stereo not given) | inactive: 29.2%

Ordered by heavy-atom count (ascending): some entries from above.
Row | SMILES | activity change, negative = inhibition
83 | CC1(C)CC(=O)C2=C(C1)OC1=C(C2)C(=O)CC(C)(C)C1 | inconclusive: -44.4%
78 | CSCc1nc2sc(C(=O)Nc3nc(C)cs3)c(C)c2c(=O)[nH]1 | inactive: 43.9%
71 | CC(C)n1nccc1N(Cc1ccc(Cl)cc1)S(=O)(=O)c1ccccc1 | inconclusive: -41.1%
84 | CCN(Cc1ccccc1)S(=O)(=O)c1c(C)[nH]c(C)c1C(=O)N1CCCCC1 | inactive: 6.62%
